These are yes or no findings as the source states them, for the method shown. Binding seen in cells or lysates may run through a third protein. Some entries that bind do so weakly or less than the wild type.
Target: cyclin T1 (human (endogenous in 293)) (UniProt O60563)
Test: co-IP

By UniProt entry, the sequences of proteins in these tests, tags left out.
UniProt O60563: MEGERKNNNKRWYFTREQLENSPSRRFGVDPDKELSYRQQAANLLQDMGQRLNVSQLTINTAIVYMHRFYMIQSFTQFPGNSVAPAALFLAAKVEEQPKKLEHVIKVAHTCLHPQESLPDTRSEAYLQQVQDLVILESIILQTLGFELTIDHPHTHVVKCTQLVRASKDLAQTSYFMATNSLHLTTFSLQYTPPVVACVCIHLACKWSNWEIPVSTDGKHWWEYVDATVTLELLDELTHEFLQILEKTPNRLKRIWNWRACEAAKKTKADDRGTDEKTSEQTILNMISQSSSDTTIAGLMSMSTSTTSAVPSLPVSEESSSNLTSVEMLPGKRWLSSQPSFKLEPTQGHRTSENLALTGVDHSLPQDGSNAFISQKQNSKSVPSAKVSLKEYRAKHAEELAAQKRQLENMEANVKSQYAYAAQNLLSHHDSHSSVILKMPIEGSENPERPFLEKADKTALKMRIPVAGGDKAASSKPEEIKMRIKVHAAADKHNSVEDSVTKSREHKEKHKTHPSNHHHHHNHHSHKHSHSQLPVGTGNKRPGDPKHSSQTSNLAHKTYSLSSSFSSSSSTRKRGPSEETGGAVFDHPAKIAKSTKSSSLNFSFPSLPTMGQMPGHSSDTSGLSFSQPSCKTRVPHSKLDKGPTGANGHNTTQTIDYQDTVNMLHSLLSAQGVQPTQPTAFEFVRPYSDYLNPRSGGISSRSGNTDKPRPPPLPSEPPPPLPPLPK
UniProt O94992: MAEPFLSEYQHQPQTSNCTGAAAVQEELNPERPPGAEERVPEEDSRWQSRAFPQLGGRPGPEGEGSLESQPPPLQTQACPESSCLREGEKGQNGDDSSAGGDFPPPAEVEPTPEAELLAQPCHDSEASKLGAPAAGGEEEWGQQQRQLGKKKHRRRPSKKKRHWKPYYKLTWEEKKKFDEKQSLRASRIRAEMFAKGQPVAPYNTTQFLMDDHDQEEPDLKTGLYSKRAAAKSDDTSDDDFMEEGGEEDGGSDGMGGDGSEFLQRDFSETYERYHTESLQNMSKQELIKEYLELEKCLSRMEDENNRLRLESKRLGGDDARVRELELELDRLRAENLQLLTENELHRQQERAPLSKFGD

## HEXIM1 protein (endogenous) (from UniProt O94992 1-359)
  binding: binds
